{
  "source": "paper PMC10974294",
  "about": "“Addressing the ADME Challenges of Compound Loss in a PDMS-Based Gut-on-Chip Microphysiological System” (Pharmaceutics, 2024)",
  "assay": "Compound loss (PDMS ad- and absorption) in cell-free organ-chips",
  "assay_type": "in vitro ADME",
  "details": "10 µM per drug in cocktail, outlet vs inlet after one hour at 200 µL/h, mean of two experiments",
  "excerpt": "S-1® Organ-Chips from Emulate Inc. (Boston, MA, USA) comprise 2 parallel channels (top and bottom) for cell culture, which are superimposed and separated via a porous membrane, all made of polydimethylsiloxane (PDMS). The 50 µm thick membrane contains pores of a diameter of 7 µm, which are spaced 40 µm apart from each other. In addition, 2 more channels, in which a vacuum can be applied to laterally stretch the cell culture channels, flank the cell culture channels horizontally. The top channel has a size of 1000 × 1000 µm (width × height), a culture area of 28 mm^2, and a volume of 28 µL. The bottom channel has a size of 1000 × 200 µm (width × height), a culture area of 24.5 mm^2, and a volume of 5.6 µL. Both channels share an area of 17.1 mm^2 of the porous membrane as a coculture area. […]\nCompound loss experiments in cell-free organ-chips were performed with used chips after removal of the cells and washing-out of previously perfused compounds (Section 4). […] The compound concentrations in the outlets were measured via liquid chromatography-tandem mass spectrometry (LC-MS/MS, Section 2.8) after a period of one hour, with a flow rate of 200 µL/h (manufacturer’s instruction), and relatively compared to the inlet concentrations, and the difference was reported as the percent drug absorbed. […]",
  "data": [
    {"smiles": "COC(=O)C1=C(C)NC(C)=C(C(=O)OC)C1c1ccccc1[N+](=O)[O-]", "note": "[Nifedipine]", "values": [
      {"measurement": "Compound Loss Bottom Channel (%)", "result": 25.6, "unit": "%"},
      {"measurement": "Compound Loss Top Channel (%)", "result": 28.3, "unit": "%"}
    ]}
  ]
}
